Reference: patent US20250288584A1, “COMBINATIONS COMPRISING POSITIVE ALLOSTERIC MODULATORS OR ORTHOSTERIC AGONISTS OF METABOTROPIC GLUTAMATERGIC RECEPTOR SUBTYPE 2 AND THEIR USE” (JANSSEN PHARMACEUTICA NV, priority 2014, published 2025)
At least one read-out could not be matched to a standard name with certainty.

Tested on: 6 Hz (44 mA) psychomotor seizures
Assay: 6 Hz psychomotor seizure test, 44 mA (alone, combination with LEV, isobolographic study)
Assay type: in vivo, mice
Procedure: Test compounds were administered using an optimal fluid volume to body fluid ratio. Test compounds were administered to mice in a volume of 0.01 mL/g of body weight (White H. S., et al., General Principles: Experimental selection, quantification, and evaluation of antiepileptic drugs, in Antiepileptic Drugs, Fourth Edition, […], and B. S. Meldrum, Editors. 1995, Raven Press, Ltd.: New York, pp. 99-110). For subcutaneous (s.c.) administration, the test compounds were administered into a loose fold of skin along the back of the animal except compound 6-b, which was administered orally (p.o). […] The animals were maintained on an adequate diet (Prolab RMH 3000) and allowed free access to food and water, except during the short time they were removed from their cage for testing. Animals newly received in the laboratory were allowed sufficient time to correct for possible food and water restriction incurred during transit before being employed in testing. […] Initial ED50 values were determined for both Co. […] Doses used were proportional to calculated ED50 values. […] Experimentally determined ED50 (+SEM) values for each fixed dose-ratio combination were compared to the theoretical values (t-test) for statistical purposes. […] Subsequently, the experimental combined doses were determined for the same paradigms in the 6 Hz seizure test (Table 4 below).

| SMILES | ED50 (95% CI) 44 mA (s.c., at TPE, compound alone) [mg/kg] | # protected/# tested (LEV alone 10 mg/kg i.p., 1 h) |
| --- | --- | --- |
| FC(F)(F)c1c(N2CCC(c3ccccc3)CC2)ccn2c(CC3CC3)nnc12 [Co. No. 2] | 6.97 |  |
| CC[C@@H](C(N)=O)N1CCCC1=O [LEV, (S)-2-(2-oxopyrrolidin-1-yl) butanamide, reference compound] |  | 1/8 |
